At least one structure is not confirmed: it was looked up by name or label, or the drawing left a doubt.
System: Human retinal pigmented epithelium cells (RPE)
Experiment: NO bioassay: DAF-FM DA fluorescence as indicator of NO in RPE cells
Assay type: cell-based
Conditions: RPE cells in PBS supplemented with Ca2+ and Mg2+

In the case of `O=C1c2c(O)cccc2Cc2cccc(O)c21` [Dithranol], the “NO level (DAF-FM DA fluorescence) relative to control, in words” value is reported as “increase”.

From patent publication US10670609B2, “Ytterbium as a surrogate cation to measure calcium flux” (Government of the United States, as represented by the …, priority 2017, dated 2020)
